# Experimental data from patent US20190022091A1, “METHOD OF TREATMENT FOR MENTAL DISORDERS” (SUMITOMO DAINIPPON PHARMA CO., LTD., priority 2010, published 2019).
# At least one compound was matched to its structure with a doubt left.
# Tested on: common marmosets
# Assay: ORD test (object retrieval with detour test) in marmosets
# Assay type: in vivo, common marmoset
# Details: single oral administration, test 2 hours after administration vs before; FIG. 2-6
# Experimental: ORD test (object retrieval with detour test) is already reported as a method for evaluating executive function (attention function/impulsiveness) in primates.
# Male and female common marmosets having body weights of 250-450 g were used. Haloperidol, clozapine, olanzapine, risperidone, and lurasidone hydrochloride were separately suspended in 0.5% methylcellulose (MC), and then each suspension was orally administered in a dose of 5 mL/kg to the marmosets. On the other hand, L-745,870 which is a D4 antagonist, and Ro 10-5824 which is a D4 agonist were separately dissolved in saline, and then each solution was intramuscularly administered to the femoris area in a dose of 0.5 mL/kg.
# According to the method described in the literature (Psychopharmacology (2006) 196: 643-648) which was partially modified, the ORD test was carried out as follows (see FIG. 1).
# In each of the boxes, 0.3-0.5 g of Baumkuchen as a food reward is placed at the point of each triangle in FIG. 1. […] It is recorded as “correct” when the test animal can obtain the reward in one trial, while it is recorded as “incorrect” when the animal can obtain the reward in the second trial or later. […]
# (3) The variation of correct % in the Difficult task is calculated according to the following formula in order to evaluate the effect of each drug. […]
structure (smiles),measurement,value
Cc1cc2c(s1)Nc1ccccc1N=C2N1CCN(C)CC1 [olanzapine],variation of the correct % of the ORD test (difficult task),decreased the correct % of the ORD test in a dose-dependent manner
